Experimental data from PubChem BioAssay AID1347076 (National Center for Advancing Translational Sciences (NCATS), 2019).
Screen size: about 400,000 compounds; about 13,000 (3.2%) were called active. The inconclusive results got no clear call from the source; some entries with a clear call stand among them for comparison. Calls follow the shape of the dose curve; as a rule, active = well fitted cell-killing curve with a large enough effect; inconclusive = small, poorly fitted or top-dose-only effect, or effect the other way; inactive = flat fitted curve, though single readings scatter. A potency beside an inconclusive call is a rough fit, not a confirmed value.

Experiment: qHTS assay for MDR1-selective chemotherapeutics: Primary screen using the drug-selected MDR subline cells KB-V1; also: nearly all actives have a fitted effect of over 60% in size
Settings: KB-V1 MDR cells viability, CellTiter-Glo, 72 h; series mostly up to 46.1 µM
In short: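 KB-V1, DMEM (no phenol red) + 10% FBS; cpd pin-transferred, titration series; 72 h, 37 degrees C; CellTiter-Glo, luminescence. Data normalized, curve-fit.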
Potency is read from the fitted curve at half-maximal effect.

SMILES	Potency
CN(c1ccccc1)S(=O)(=O)c1cccc(NC(=O)Cc2ccc(Cl)cc2)c1	active: 5.8 µM
CCn1ccnc1CNC(=O)c1ccc(OC2CCN(C(=O)COC)CC2)cc1	inconclusive: 29.1 µM [rising, single point]
COc1ccc(CC(=O)Nc2cc(S(=O)(=O)N3CCCCC3)ccc2N2CCN(C)CC2)cc1	inconclusive: 23.1 µM [cytotoxic, single point]
Cc1nc(-c2ccc(F)cc2)c(CC(=O)Nc2cccc(S(=O)(=O)N3CCOCC3)c2)s1	inactive
CCCCCc1nnc(NC(=O)c2ccc(N3CCCC3=O)cc2)s1	inconclusive: 4.11 µM [cytotoxic, full curve]
CCCc1cc(-n2ccnc2)n2c(nc3ccccc32)c1C#N	inconclusive: 29.1 µM [cytotoxic, single point]
COc1ccc(C(=O)Nc2cc(-c3ccccc3)nn2-c2ccccc2F)cc1	inactive
O=C(Nc1cc(C(=O)N2CCN(c3ccccc3)CC2)ccc1Cl)c1cccs1	active: 8.2 µM
COc1ccc(S(=O)(=O)N2CCCCC2)cc1NCC(=O)Nc1ccc(C)cc1	inconclusive: 29.1 µM [cytotoxic, single point]
CCn1c(COc2ccccc2)nnc1SCC(=O)Nc1cc(C)ccc1OC	active: 14.6 µM
CC(C)CNC(=O)N1c2ccccc2Sc2ccccc21	inconclusive: 25.9 µM [cytotoxic, single point]
ON=C1c2cc(OCCN3CCCCC3)ccc2-c2ccc(OCCN3CCCCC3)cc21	inconclusive: 23.1 µM [cytotoxic, single point]
COc1ccc(S(=O)(=O)N2CCN(CCc3ccccc3)CC2)cc1	inconclusive: 5.17 µM [cytotoxic, full curve]
Cc1nc2c(o1)C(=O)c1ccccc1C2=Nc1ccccc1	active: 3.26 µM
Cc1ccc2nc(SC(C)C(=O)N3CCCCC3)[nH]c2c1 (stereo not given)	inconclusive: 16.4 µM [cytotoxic, single point]
O=S(=O)(Nc1cccc(-c2cn3cccnc3n2)c1)c1ccc(F)cc1	active: 20.6 µM
O=C1CN(S(=O)(=O)c2ccc(Cl)cc2)c2ccccc2N1	inactive
COc1ccc(C(=O)C2CCN(C(=S)Nc3ccc(F)cc3)CC2)cc1	inconclusive: 25.9 µM [cytotoxic, partial curve, poor fit]
O=C(Cn1c(-c2ccccc2)c[n+]2ccsc12)c1ccc(Br)cc1	inactive
Cc1cc(Br)ccc1SCC(=O)OCC(=O)NC1CC1	inconclusive: 32.6 µM [rising, single point]
CCOc1ccccc1N1CCN(c2nc3ccccc3nc2C(C#N)C(=O)OC)CC1 (stereo not given)	inconclusive: 18.4 µM [cytotoxic, partial curve]
COc1ccccc1N1CCN(C(=O)COc2ccccc2C#N)CC1	inconclusive: 29.1 µM [cytotoxic, single point]
COc1ccccc1NC(=O)c1nn(-c2ccccc2)ccc1=O	inactive

An excerpt from above in order of length of the SMILES, descending.
SMILES	Potency
CCOc1ccccc1N1CCN(c2nc3ccccc3nc2C(C#N)C(=O)OC)CC1 (stereo not given)	inconclusive: 18.4 µM [cytotoxic, partial curve]
CCn1ccnc1CNC(=O)c1ccc(OC2CCN(C(=O)COC)CC2)cc1	inconclusive: 29.1 µM [rising, single point]
COc1ccc(C(=O)C2CCN(C(=S)Nc3ccc(F)cc3)CC2)cc1	inconclusive: 25.9 µM [cytotoxic, partial curve, poor fit]

The list goes on.

SMILES	Potency
Cc1cc(NC(=O)c2cccnc2Cl)ccc1NC(=O)c1cc2ccccc2o1	inconclusive: 4.11 µM [cytotoxic, full curve]
COc1cccc(C2CC(c3ccc(Br)cc3)=NN2C(=O)c2ccncc2)c1OC (stereo not given)	inconclusive: 16.4 µM [cytotoxic, partial curve, poor fit]
CC(C)Nc1nnc(SCC(=O)Nc2ccc3c(c2)C(=O)c2ccccc2C3=O)s1	active: 10.3 µM
NS(=O)(=O)c1ccc(NC(=O)CSc2n[nH]c(=O)n2Cc2ccccc2)cc1	inactive
CCOc1ccc(S(=O)(=O)N2CCC(n3c(C)nc4cccnc43)CC2)cc1	inconclusive: 9.2 µM [cytotoxic, partial curve]
CCC(=O)N1Cc2cc(C(=O)NCC(F)(F)F)nc(-c3cccc(-c4cncnc4)c3)c2[C@H]1CCO	inactive
O=c1nccc(N/N=C/c2cccc(O)c2)[nH]1	inconclusive: 16.4 µM [cytotoxic, partial curve, poor fit]
O=C(Nc1cccc(Cl)c1N1CCCCC1)c1ccc(N2CCOCC2)c([N+](=O)[O-])c1	inconclusive: 3.26 µM [cytotoxic, full curve]
O=C(Nc1cccc(C(F)(F)F)c1)C1CCCN(S(=O)(=O)c2cccc3nonc23)C1 (stereo not given)	inactive
O=C(CCc1ccccc1)Nc1cccc([S+](=O)([O-])Nc2ccccc2F)c1	inactive
Cc1ccc(C(C(=O)NC(C)(C)C)N(Cc2cccs2)C(=O)c2csnn2)cc1 (stereo not given)	inconclusive: 4.11 µM [cytotoxic, partial curve, poor fit]
Cc1ccc(C(C)C)cc1OCCCCN1CCCC1	active: 20.6 µM
COc1ccc(C(=O)C2CCN(CC(=O)NCc3ccccc3)CC2)cc1	inconclusive: 5.17 µM [cytotoxic, full curve]
COc1ccc(OC)c(C(=O)Cn2cnc3ccccc3c2=O)c1	inconclusive: 20.6 µM [cytotoxic, single point]
Cc1cc2oc(C(=O)Nc3ccc(S(=O)(=O)N(C)c4ccccc4)cc3)cc(=O)c2cc1C	inconclusive: 20.6 µM [rising, single point]
O=C(O)CNC(=S)N(Cc1ccccc1)Cc1ccccc1F	inconclusive: 29.1 µM [rising, single point]
CSC[C@H]1CN(c2ccc(Br)cc2)C(=O)[C@@H]1CC(=O)Nc1ccc(Br)cc1	inconclusive: 29.1 µM [cytotoxic, single point]
CC(C)(C)c1ccc(C(=O)Nc2nnc3n2CCS3)cc1	inconclusive: 29.1 µM [cytotoxic, single point]
Clc1ccc(CNc2ncnc3[nH]ncc23)c(Cl)c1	inactive
Cc1cc(C(=O)CSc2nc3ccccc3o2)c(C)n1CC1CCCO1 (stereo not given)	inconclusive: 25.9 µM [cytotoxic, partial curve, poor fit]
COc1cc(/C=N/NC(=S)NCc2ccccc2)ccc1OCC#N	inconclusive: 29.1 µM [cytotoxic, single point]
COc1ccc(CNC(=O)c2ccc(S(=O)(=O)N3CC(C)CC(C)C3)cc2)cc1OC (stereo not given)	active: 7.31 µM
